Test results taken from US20200190592A1, “PME-1 AS A BIOMARKER TO PREDICT AND DIAGNOSE AN INCREASED RISK OF ENDOMETRIAL CANCER AND GENE SILENCING OF PME-1 TO INHIBIT EPITHELIAL TO MESENCHYMAL TRANSITION” (Medical Diagnostic Laboratories, L.L.C., priority 2018, published 2020).
Numbering of substitutions follows the chain as printed. Names and notes keep the numbering of the source. These are yes or no findings as the source states them, for the method shown. In cells and extracts the contact can be indirect. Some results given as binding are weak or reduced against the parent protein; the word gives no strength. Tags and fused reporters may be left off the sequences shown.

Protein sequences, listed by entry. Tags and fused reporters are not part of them.
UniProt P62714: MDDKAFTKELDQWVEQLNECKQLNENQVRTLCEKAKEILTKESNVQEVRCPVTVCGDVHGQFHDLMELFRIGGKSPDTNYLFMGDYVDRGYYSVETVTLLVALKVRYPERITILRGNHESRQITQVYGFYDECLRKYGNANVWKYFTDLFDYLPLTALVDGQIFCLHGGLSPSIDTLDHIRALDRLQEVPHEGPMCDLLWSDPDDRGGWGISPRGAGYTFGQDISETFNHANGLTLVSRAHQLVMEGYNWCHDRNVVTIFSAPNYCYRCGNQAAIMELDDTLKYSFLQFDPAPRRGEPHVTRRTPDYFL

B1: FLAG-tagged PME-1 (over-expression of wild-type PME-1) (enzyme, human, UniProt Q9Y570 1-386, looked up, not shown: small tags and cut ends)
chain: MSALEKSMHLGRLPSRPPLPGSGGSQSGAKMRMGPGRKRDFSPVPWSQYFESMEDVEVENETGKDTFRVYKSGSEGPVLLLLHGGGHSALSWAVFTAAIISRVQCRIVALDLRSHGETKVKNPEDLSAETMAKDVGNVVEAMYGDLPPPIMLIGHSMGGAIAVHTASSNLVPSLLGLCMIDVVEGTAMDALNSMQNFLRGRPKTFKSLENAIEWSVKSGQIRNLESARVSMVGQVKQCEGITSPEGSKSIVEGIIEEEEEDEEGSESISKRKKEDDMETKKDHPYTWRIELAKTEKYWDGWFRGLSNLFLSCPIPKLLLLAGVDRLDKDLTIGQMQGKFQMQVLPQCGHAVHEDAPDKVAEAVATFLIRHRFAEPIGGFQCVFPGC
B2: V5-PME-1 (enzyme, human, UniProt Q9Y570 1-386, looked up, not shown: small tags and cut ends)
chain: B1 chain
B3: V5-PME-1 S156A (enzyme, human, UniProt Q9Y570 1-386, looked up, not shown: small tags and cut ends)
chain: B1 chain with S156A
B4: FLAG-tagged PME-1 S156A (catalytically inactive mutant) (enzyme, human, UniProt Q9Y570 1-386, looked up, not shown: small tags and cut ends)
chain: B1 chain with S156A

How the values were obtained:
[1] = target: T1, Endogenous Ppp4c, the catalytic subunit of PP4 (human) (UniProt P60510); experiment: FLAG co-immunoprecipitation from ECC-1 lysate, western blot (summary of the example)
T1 sequence (looked up): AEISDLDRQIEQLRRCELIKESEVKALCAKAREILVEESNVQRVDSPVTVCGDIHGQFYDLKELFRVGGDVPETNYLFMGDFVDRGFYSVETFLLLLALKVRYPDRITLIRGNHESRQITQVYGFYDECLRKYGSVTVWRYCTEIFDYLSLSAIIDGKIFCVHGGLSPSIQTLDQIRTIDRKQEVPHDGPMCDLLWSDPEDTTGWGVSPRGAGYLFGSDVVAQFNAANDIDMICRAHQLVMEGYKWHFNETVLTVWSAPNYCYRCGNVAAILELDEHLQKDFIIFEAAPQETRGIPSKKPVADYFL

[2] = target: T1, Endogenous Ppp4c, the catalytic subunit of PP4 (human); experiment: FLAG co-immunoprecipitation from ECC-1 lysate, western blot
[3] = target: T1, Endogenous Ppp4c, the catalytic subunit of PP4 (human); experiment: FLAG co-immunoprecipitation from ECC-1 lysate, western blot with anti-Ppp4c
[4] = target: Ppp2cb, the beta isoform of the catalytic subunit of PP2A (human) (UniProt P62714); experiment: FLAG co-immunoprecipitation from ECC-1 lysate, western blot (data not shown)
FLAG-Ppp4c = target: T2, FLAG-Ppp4c (UniProt P60510); experiment: FLAG co-immunoprecipitation from co-transfected HEK293T cells, western blot with anti-V5
T2 sequence (looked up): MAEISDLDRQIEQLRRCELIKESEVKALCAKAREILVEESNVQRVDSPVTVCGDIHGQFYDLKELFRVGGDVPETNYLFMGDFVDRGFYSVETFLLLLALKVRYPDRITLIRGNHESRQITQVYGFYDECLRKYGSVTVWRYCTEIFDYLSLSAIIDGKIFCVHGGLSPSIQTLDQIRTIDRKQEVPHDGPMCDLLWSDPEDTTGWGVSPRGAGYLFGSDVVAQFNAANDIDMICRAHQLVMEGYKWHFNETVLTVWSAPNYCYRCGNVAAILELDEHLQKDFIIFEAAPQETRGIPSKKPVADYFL

Binder | binding [1] | binding [2] | binding [3] | binding [4] | binding (FLAG-Ppp4c)
B1 | binds | binds | binds | binds | –
B2 | – | – | – | – | binds
B3 | – | – | – | – | binds
B4 | – | binds | – | – | –
